Measurements reported in PubChem BioAssay AID1259425 (University of Nebraska Medical Center, 2018).
Purpose: 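Seek colon cancer weak points whose silencing resembles KSR1 loss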 (primary screen). Cells: HCT116 human colon cancer cells. Knock-down reagent: siRNA pool against human genes, 50 nM siRNA. Read-out: 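After 50 nM siRNA pool, branched-DNA assay measures six marker transcripts per well, minus blank, normalised to the geometric mean of two housekeeping transcripts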. Scale: BNIP3L mRNA: higher = more BNIP3L transcript after knockdown; NDRG1 mRNA: higher = more NDRG1 transcript after knockdown; BNIP3 mRNA: higher = more BNIP3 transcript after knockdown.
Here is an unselected part of about 14,000 deposited reagents. Not all columns of the deposit are shown. Reagent sequences are not shown. Not given: the time to read-out.

target gene | PubChem SID | BNIP3L mRNA, set 1 | NDRG1 mRNA, set 1 | BNIP3 mRNA, set 1
PPIE (peptidylprolyl isomerase E) | SID363996953 | 0.183 | 0.305 | 0.338
TGFA (transforming growth factor alpha) | SID363994359 | 0.107 | 0.191 | 0.279
IDUA (alpha-L-iduronidase) | SID363991539 | 0.0647 | 0.171 | 0.222
MAVS (mitochondrial antiviral signaling protein) | SID364001801 | 0.192 | 0.847 | 0.256
GFUS (GDP-L-fucose synthase) | SID363994429 | 0.122 | 0.889 | 0.162
MRPL44 (mitochondrial ribosomal protein L44) | SID364002604 | 0.0997 | 0.21 | 0.276
ITGA6 (integrin subunit alpha 6) | SID363991545 | 0.0341 | 0.209 | 0.335
TRIR (telomerase RNA component interacting RNase) | SID364002699 | 0.101 | 0.538 | 0.2
SCRIB (scribble planar cell polarity protein) | SID363999436 | 0.133 | 0.0926 | 0.346
ASF1B (anti-silencing function 1B histone chaperone) | SID364000830 | 0.0608 | 0.177 | 0.315
MAGEB4 (MAGE family member B4) | SID363993549 | 0.0574 | 0.445 | 0.442
ERH (ERH mRNA splicing and mitosis factor) | SID363995432 | 0.0866 | 0.134 | 0.384
H3C6 (H3 clustered histone 6) | SID363994616 | 0.079 | 0.0941 | 0.311
SLC25A16 | SID364004740 | 0.0651 | 0.101 | 0.311
ORM2 (orosomucoid 2) | SID363991926 | 0.202 | 0.571 | 0.277
RPS6KB2 (ribosomal protein S6 kinase B2) | SID363995007 | 0.088 | 0.132 | 0.325
RPS6KB2 | SID364002138 | 0.062 | 0.227 | 0.258
AGO1 (argonaute RISC component 1) | SID363998132 | 0.21 | 0.399 | 0.45
HTR5A (5-hydroxytryptamine receptor 5A) | SID364002676 | 0.253 | 0.11 | 0.42
CLEC1B (C-type lectin domain family 1 member B) | SID364000159 | 0.053 | 0.143 | 0.26
MRPL57 (mitochondrial ribosomal protein L57) | SID364002688 | 0.0835 | 0.172 | 0.326
ZNF134 (zinc finger protein 134) | SID363994537 | 0.0862 | 0.137 | 0.213
ODC1 (ornithine decarboxylase 1) | SID363993710 | 0.0447 | 0.179 | 0.192
NRG1 (neuregulin 1) | SID363998535 | 0.0393 | 0.148 | 0.256
CALCR (calcitonin receptor) | SID363992963 | 0.129 | 0.168 | 0.289
KRTAP3-3 (keratin associated protein 3-3) | SID364004343 | 0.16 | 0.227 | 0.263
CYBB (cytochrome b-245 beta chain) | SID363991728 | 0.138 | 0.202 | 0.18
DLGAP4 (DLG associated protein 4) | SID363999184 | 0.0728 | 0.436 | 0.338
ABHD18 (abhydrolase domain containing 18) | SID364003246 | 0.0741 | 0.318 | 0.295
HSPB8 (heat shock protein family B (small) member 8) | SID363998789 | 0.107 | 0.0561 | 0.368
PSMD2 (proteasome 26S subunit ubiquitin receptor, non-ATPase 2) | SID363993965 | 0.144 | 0.179 | 0.562
BTN3A1 (butyrophilin subfamily 3 member A1) | SID363997779 | 0.172 | 0.128 | 0.445
SIL1 (SIL1 nucleotide exchange factor) | SID364002450 | 0.0722 | 0.087 | 0.183

Just “NDRG1 mRNA, set 1”, for 7 of the entries above:
IDUA (alpha-L-iduronidase) [SID363991539] = 0.171
MAVS (mitochondrial antiviral signaling protein) [SID364001801] = 0.847
GFUS (GDP-L-fucose synthase) [SID363994429] = 0.889
MRPL44 (mitochondrial ribosomal protein L44) [SID364002604] = 0.21
ITGA6 (integrin subunit alpha 6) [SID363991545] = 0.209
TRIR (telomerase RNA component interacting RNase) [SID364002699] = 0.538
SCRIB (scribble planar cell polarity protein) [SID363999436] = 0.0926

The list goes on:
target gene | PubChem SID | BNIP3L mRNA, set 1 | NDRG1 mRNA, set 1 | BNIP3 mRNA, set 1
RLN1 (relaxin 1) | SID363997665 | 0.062 | 0.0784 | 0.229
STAG3L1 (STAG3 cohesin complex component like 1 (pseudogene)) | SID364001312 | 0.0614 | 0.13 | 0.203
MTTP (microsomal triglyceride transfer protein) | SID363991586 | 0.114 | 0.0961 | 0.268
TTPAL (alpha tocopherol transfer protein like) | SID364002802 | 0.102 | 0.354 | 0.483
GRAMD1A (GRAM domain containing 1A) | SID364001886 | 0.0733 | 0.534 | 0.447
MAGEA8 (MAGE family member A8) | SID363996274 | 0.0575 | 0.617 | 0.323
CAT (catalase) | SID363992972 | 0.0866 | 0.156 | 0.214
KDM4C (lysine demethylase 4C) | SID363999278 | 0.118 | 0.202 | 0.368
CMTM7 (CKLF like MARVEL transmembrane domain containing 7) | SID364004554 | 0.167 | 0.232 | 0.462
EIF4E2 (eukaryotic translation initiation factor 4E family member 2) | SID363995798 | 0.14 | 0.137 | 0.239
CENPK (centromere protein K) | SID364002371 | 0.105 | 0.45 | 0.177
ZFYVE9 (zinc finger FYVE-type containing 9) | SID363995754 | 0.115 | 0.225 | 0.239
BLOC1S4 (biogenesis of lysosomal organelles complex 1 subunit 4) | SID364001010 | 0.14 | 0.345 | 0.339
MAGEE1 (MAGE family member E1) | SID364001901 | 0.0904 | 0.367 | 0.322
G6PD (glucose-6-phosphate dehydrogenase) | SID363991733 | 0.0617 | 0.205 | 0.285
COL3A1 (collagen type III alpha 1 chain) | SID363991427 | 0.0793 | 0.257 | 0.427
KCNS3 | SID363993451 | 0.0889 | 0.295 | 0.167
